Test results as given in PubChem BioAssay AID2685 (National Center for Advancing Translational Sciences (NCATS), 2010).
The other results are listed elsewhere or left out. The main result of the screen is listed elsewhere. These columns were measured beside it and carry no call. The list favours compounds with an active or inconclusive main result. Potencies come from curve fits of mixed quality, noted in brackets.

Assay: qHTS Assay for Lipid Storage Modulators in Drosophila S3 Cells;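 as to cell number change: cells counted by Cell Tracker Red CMTPX staining in the red channel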
Conditions: BODIPY lipid droplet fluorescence, 18-24 h; for cell number change: measured here: cell count max response, cells fed with added oleic acid
Summary of the method: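 Drosophila S3 cells loaded with oleic acid (400 uM, as added) and compounds at several concentrations; lipid droplets imaged by 488-nm laser-scanning cytometry, 500–530 nm intensity and object ratio to cell channel. Percent activity normalized to 20 uM Triacsin C.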

[1] = measured here: cell number channel AC50, cells fed with added oleic acid
[2] = measured here: lipid fluorescence (Fed channel) AC50, cells fed with added oleic acid

## FC(F)(F)c1cccc(-c2nn[nH]n2)c1
  cell number change: 29.4%
[1]
  AC50: 0.82 µM [rising, full curve, poor fit]

## COc1ccc(C(=O)OCC(=O)NC(=O)NCc2ccccc2)cc1[N+](=O)[O-]
  cell number change: -7.29%
[2]
  AC50: 6.51 µM [falling, single point]

## COc1ccc2nc(SC)c(C#N)cc2c1
  cell number change: -25%
[2]
  AC50: 29.1 µM [falling, single point]

## Cc1cccc(Cc2cnc(NC(=O)c3ccc(C)o3)s2)c1
  cell number change: 93.5%
[1]
  AC50: 23.1 µM [rising, single point]
[2]
  AC50: 20.6 µM [rising, partial curve]

## COCCn1c(SCC(=O)NCCc2ccccc2)nnc1-c1ccco1
  cell number change: 1.28%
[2]
  AC50: 0.103 µM [rising, full curve, poor fit]

## COc1ccc(CCNC(=O)CN2c3cccc4cccc(c34)S2(=O)=O)cc1OC
  cell number change: 1.8%

## Nc1c(C(=O)O)cnn1-c1ccccc1
  cell number change: 22.5%
[2]
  AC50: 29.1 µM [rising, single point]

## COc1ccc(-c2nnc(SCC(=O)NCc3ccco3)o2)cc1
  cell number change: 20.2%
[2]
  AC50: 1.64 µM [rising, partial curve, poor fit]

## CCN1C(=O)C(CC(=O)NC2CCCCC2)N(CC)C1=O (stereo not drawn)
[2]
  AC50: 6.51 µM [falling, full curve]

## CCOC(=O)CNc1ccc2c(c1)OCO2
  cell number change: 134%
[1]
  AC50: 29.1 µM [rising, single point]
[2]
  AC50: 29.1 µM [rising, single point]

## Cc1nc(/N=C(\N)Nc2ccccc2)nc2ccccc12
  cell number change: 1.63%
[2]
  AC50: 11.6 µM [rising, partial curve]

## Cc1cccc(NC(=O)COC(=O)c2ccccc2-c2nc3ccccc3s2)c1C
  cell number change: -10.3%
[2]
  AC50: 25.9 µM [falling, partial curve, poor fit]

## CN1CCC(N(C)C(=O)c2sc3cc(F)ccc3c2Cl)CC1
  cell number change: -111%

## COc1cc(/C=N/NC(=O)C(=O)NCC2CCCO2)ccc1O (stereo not drawn)
  cell number change: -32.5%
[1]
  AC50: 6.51 µM [falling, partial curve]

## Cn1nnnc1SCC(=O)c1ccco1
[2]
  AC50: 3.26 µM [falling, partial curve]

## CC(C)OCCCNC(=O)CN1C(=O)c2cccc3cccc1c23
  cell number change: -12.4%

## CC1C(=O)N2CCCc3cc(NC(=O)C(=O)NCCCc4ccccc4)cc1c32 (stereo not drawn)
[1]
  AC50: 2.31 µM [rising, partial curve]

## COc1cc([N+](=O)[O-])cc(/C=N/NC(=O)C(C)Nc2ccccc2C)c1O (stereo not drawn)
  cell number change: -24.6%
[1]
  AC50: 4.61 µM [falling, full curve, poor fit]
[2]
  AC50: 8.2 µM [falling, partial curve, poor fit]

## COc1ccc(/C=C/C(=O)c2ccccc2O)cc1
  cell number change: 20.9%
[2]
  AC50: 1.3 µM [rising, partial curve]

## Cc1c(-c2ccccc2)nc2ccccc2c1C(=O)Nc1ccncc1
  cell number change: 88.2%
[1]
  AC50: 18.4 µM [rising, single point]

## C[N+]12CCCCC1[C@@H](CO)CCC2 (stereo partly drawn)
  cell number change: -33.8%
[1]
  AC50: 32.6 µM [falling, single point]
[2]
  AC50: 0.259 µM [falling, full curve]

## COc1ccc(CNc2nc3ccccc3s2)cc1OC
  cell number change: 6.8%
[1]
  AC50: 7.31 µM [rising, partial curve, poor fit]

## CC(C)(C)c1nnc(NC(=O)Cc2ccc(Br)cc2)s1
  cell number change: -11.6%
[2]
  AC50: 6.51 µM [rising, full curve]

## Cc1ccc(F)cc1CNC(=O)c1cc(COc2ccc3ncccc3c2)on1
  cell number change: -57.7%
[1]
  AC50: 29.1 µM [falling, single point]
[2]
  AC50: 18.4 µM [falling, partial curve, poor fit]

## Cc1cccc(OCCn2c(NC(=O)c3ccco3)nc3ccccc32)c1
  cell number change: -19%
[2]
  AC50: 29.1 µM [falling, single point]

## CCOC(=O)c1cnc(SCC(=O)N2CCN(c3ccccc3)CC2)nc1N
[1]
  AC50: 3.26 µM [rising, single point]
[2]
  AC50: 9.2 µM [rising, partial curve]

## CCOCCCNC(=O)C(NC(=O)c1ccc(NC(C)=O)cc1)c1ccc(C)cc1 (stereo not drawn)
[2]
  AC50: 2.06 µM [rising, single point]

## CC(=O)Nc1cccc(/C(C)=N\NC(=O)c2ccc(Cn3nc([N+](=O)[O-])c(Cl)c3C)o2)c1
  cell number change: 17.8%
[2]
  AC50: 7.31 µM [rising, partial curve]

## O=C(COC(=O)/C=C/c1cc(Br)ccc1F)Nc1ccc2[nH]c(=O)[nH]c2c1
  cell number change: -50.6%
[1]
  AC50: 23.1 µM [falling, partial curve, poor fit]
[2]
  AC50: 13 µM [falling, partial curve, poor fit]

## COc1ccc(CCNC(=O)C(C)Sc2ccc(C)cc2)cc1OC (stereo not drawn)
  cell number change: -0.247%
[2]
  AC50: 14.6 µM [falling, partial curve, poor fit]

## COc1ccccc1C(CNC(=O)c1cccc(NS(=O)(=O)c2ccc(Br)cc2)c1)N(C)C (stereo not drawn)
[2]
  AC50: 6.51 µM [falling, single point]

## Oc1ccc(C[C@@H]2CNCCN2CCCCC2CCCCC2)cc1
  cell number change: -30.2%
[1]
  AC50: 16.4 µM [falling, single point]

## CC(/C=C1\SC(=S)N(NS(=O)(=O)c2ccc(C)cc2)C1=O)=C\c1ccccc1
  cell number change: -7.35%
[1]
  AC50: 0.146 µM [falling, full curve, poor fit]

## CSc1[nH]c(=O)c(C(=O)O)cc1C#N
  cell number change: -3.81%
[2]
  AC50: 3.26 µM [falling, single point]

## S=c1[nH]nc(-c2ccco2)n1-c1cccc2ccccc12
  cell number change: -61.4%
[1]
  AC50: 29.1 µM [falling, single point]

## COc1ccccc1-n1c(SCC(=O)N(C)C2CCS(=O)(=O)C2)nc2ccccc2c1=O (stereo not drawn)
  cell number change: -4.09%

## CC1CCCC(C)N1C(=O)c1ccc(CS(=O)(=O)c2ccccc2)cc1 (stereo not drawn)
  cell number change: -23.5%
[2]
  AC50: 25.9 µM [falling, single point]

## CN(CCc1cnn(C)c1)Cc1nc(CC2CC2)no1
[2]
  AC50: 0.731 µM [rising, partial curve, poor fit]

## O=c1oc2cccnc2n1CCS(=O)(=O)c1ccc(F)cc1
  cell number change: -6.01%
